One substance from article PMC8965495 can be followed below.

Chains of the proteins cited; added tags and fusions are not shown.
UniProt O43524: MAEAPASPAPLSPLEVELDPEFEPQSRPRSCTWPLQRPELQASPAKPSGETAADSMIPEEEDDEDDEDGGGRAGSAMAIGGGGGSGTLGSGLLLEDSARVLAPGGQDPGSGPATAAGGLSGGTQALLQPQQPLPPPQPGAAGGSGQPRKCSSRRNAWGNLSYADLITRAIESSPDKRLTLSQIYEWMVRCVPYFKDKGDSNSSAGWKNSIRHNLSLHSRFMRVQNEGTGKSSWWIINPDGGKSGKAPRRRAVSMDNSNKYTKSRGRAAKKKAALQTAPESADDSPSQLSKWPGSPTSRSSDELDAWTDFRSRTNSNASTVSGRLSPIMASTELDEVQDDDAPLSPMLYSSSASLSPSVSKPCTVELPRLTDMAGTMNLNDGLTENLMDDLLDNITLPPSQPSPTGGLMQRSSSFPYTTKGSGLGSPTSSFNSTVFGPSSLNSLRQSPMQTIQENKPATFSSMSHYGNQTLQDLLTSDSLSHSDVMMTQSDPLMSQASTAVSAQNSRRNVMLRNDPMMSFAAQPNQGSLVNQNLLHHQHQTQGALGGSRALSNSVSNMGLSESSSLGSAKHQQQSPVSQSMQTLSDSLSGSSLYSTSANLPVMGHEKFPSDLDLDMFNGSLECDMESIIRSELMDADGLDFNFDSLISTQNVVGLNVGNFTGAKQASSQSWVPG
UniProt Q6STE5: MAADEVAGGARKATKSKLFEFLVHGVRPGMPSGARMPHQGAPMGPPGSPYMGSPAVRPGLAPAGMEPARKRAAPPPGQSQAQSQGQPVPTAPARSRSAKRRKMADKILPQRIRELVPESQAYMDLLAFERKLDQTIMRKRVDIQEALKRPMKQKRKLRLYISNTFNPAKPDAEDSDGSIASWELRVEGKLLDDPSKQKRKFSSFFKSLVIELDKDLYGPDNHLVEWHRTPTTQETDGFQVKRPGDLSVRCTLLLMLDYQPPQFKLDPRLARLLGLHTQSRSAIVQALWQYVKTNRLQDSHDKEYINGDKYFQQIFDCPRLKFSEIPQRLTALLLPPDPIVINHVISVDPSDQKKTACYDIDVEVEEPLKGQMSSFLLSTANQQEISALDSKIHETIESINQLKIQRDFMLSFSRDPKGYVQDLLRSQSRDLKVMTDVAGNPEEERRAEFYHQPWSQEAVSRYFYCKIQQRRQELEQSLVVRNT
UniProt Q09472: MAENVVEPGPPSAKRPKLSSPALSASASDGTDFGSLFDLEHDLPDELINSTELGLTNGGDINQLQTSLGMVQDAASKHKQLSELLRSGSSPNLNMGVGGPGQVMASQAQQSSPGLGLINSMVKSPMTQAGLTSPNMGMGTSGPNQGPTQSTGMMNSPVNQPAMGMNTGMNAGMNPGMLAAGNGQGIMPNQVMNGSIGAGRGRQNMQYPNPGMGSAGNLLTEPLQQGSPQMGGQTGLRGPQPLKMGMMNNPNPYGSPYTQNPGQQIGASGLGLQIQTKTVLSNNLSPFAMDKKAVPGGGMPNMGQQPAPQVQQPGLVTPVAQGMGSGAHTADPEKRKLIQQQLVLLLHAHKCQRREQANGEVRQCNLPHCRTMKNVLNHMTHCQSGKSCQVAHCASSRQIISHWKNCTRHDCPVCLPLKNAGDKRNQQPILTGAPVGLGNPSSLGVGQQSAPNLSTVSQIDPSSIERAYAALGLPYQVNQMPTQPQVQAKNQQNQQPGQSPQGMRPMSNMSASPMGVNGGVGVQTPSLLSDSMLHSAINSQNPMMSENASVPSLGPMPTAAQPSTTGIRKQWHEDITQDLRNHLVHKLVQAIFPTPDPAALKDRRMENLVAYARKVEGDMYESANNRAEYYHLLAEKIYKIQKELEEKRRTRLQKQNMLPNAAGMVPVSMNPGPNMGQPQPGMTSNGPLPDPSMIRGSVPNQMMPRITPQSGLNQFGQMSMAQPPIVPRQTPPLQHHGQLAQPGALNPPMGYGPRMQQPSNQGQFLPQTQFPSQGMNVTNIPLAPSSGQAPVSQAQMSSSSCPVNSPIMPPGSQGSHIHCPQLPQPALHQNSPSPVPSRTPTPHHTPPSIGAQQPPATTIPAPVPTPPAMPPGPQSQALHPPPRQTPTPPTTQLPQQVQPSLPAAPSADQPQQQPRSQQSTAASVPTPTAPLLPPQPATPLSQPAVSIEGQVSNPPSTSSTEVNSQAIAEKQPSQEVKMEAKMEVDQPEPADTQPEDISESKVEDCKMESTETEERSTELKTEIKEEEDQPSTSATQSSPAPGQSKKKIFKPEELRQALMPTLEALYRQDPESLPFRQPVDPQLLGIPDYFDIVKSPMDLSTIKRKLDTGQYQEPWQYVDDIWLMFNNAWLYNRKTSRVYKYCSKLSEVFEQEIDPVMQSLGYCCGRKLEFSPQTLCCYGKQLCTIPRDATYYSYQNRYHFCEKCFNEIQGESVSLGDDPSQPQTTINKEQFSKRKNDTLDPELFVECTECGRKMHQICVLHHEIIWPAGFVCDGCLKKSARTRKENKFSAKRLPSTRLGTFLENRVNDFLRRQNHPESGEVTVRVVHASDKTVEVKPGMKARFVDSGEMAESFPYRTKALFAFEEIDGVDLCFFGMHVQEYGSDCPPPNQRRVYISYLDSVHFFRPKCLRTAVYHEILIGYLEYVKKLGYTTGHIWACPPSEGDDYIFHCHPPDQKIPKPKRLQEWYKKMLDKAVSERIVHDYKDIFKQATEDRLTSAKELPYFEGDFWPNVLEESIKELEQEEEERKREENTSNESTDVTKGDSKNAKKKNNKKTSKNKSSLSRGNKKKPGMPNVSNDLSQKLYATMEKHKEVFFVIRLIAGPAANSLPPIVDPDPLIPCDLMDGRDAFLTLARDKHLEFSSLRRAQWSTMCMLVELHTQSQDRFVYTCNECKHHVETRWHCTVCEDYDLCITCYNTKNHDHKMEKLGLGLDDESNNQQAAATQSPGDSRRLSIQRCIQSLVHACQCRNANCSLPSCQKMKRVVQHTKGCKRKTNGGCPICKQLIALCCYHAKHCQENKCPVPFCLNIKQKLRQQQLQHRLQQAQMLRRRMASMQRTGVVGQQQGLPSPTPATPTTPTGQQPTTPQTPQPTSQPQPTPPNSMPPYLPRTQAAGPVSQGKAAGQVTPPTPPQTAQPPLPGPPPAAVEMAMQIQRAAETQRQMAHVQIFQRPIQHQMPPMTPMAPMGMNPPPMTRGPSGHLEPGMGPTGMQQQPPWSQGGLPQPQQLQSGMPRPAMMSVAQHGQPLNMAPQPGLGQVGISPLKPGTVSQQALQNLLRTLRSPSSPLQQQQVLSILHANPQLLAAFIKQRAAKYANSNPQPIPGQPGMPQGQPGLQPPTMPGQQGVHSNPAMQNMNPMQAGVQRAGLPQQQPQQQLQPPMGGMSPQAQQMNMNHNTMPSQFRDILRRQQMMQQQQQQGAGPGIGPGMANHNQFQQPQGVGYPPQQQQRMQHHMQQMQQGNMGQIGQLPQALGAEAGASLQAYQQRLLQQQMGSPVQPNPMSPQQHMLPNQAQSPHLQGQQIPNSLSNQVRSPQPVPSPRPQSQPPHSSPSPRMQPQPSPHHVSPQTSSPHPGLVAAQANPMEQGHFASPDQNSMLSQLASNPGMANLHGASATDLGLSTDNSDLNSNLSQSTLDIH

The target in assay [1] is FOXO3 (human (endogenous in MDA-MB-231)) (UniProt O43524). Briefly: co-IP; as a1, but nuclear protein lysate of MDA-MB-231 A2BR knockdown subclone treated with vehicle or 10 nM paclitaxel for 72 h; IP with FOXO3 antibody; immunoblot. (A western blot detects proteins with antibodies after separation by electrophoresis.)
Assay [2] has the same target. Nature of the assay: co-IP; 500 ug nuclear protein lysate of MDA-MB-231 NTC subclone treated with vehicle or 10 nM paclitaxel for 72 h; IP with FOXO3 antibody or control IgG, protein G-Sepharose, 4 C overnight; immunoblot.
The target of assay [3] is chromatin remodeling factor SMARCD3 (human (endogenous in MDA-MB-231)) (UniProt Q6STE5). Nature of the assay: co-IP; 500 ug nuclear protein lysate of MDA-MB-231 NTC or A2BR knockdown subclones treated with vehicle or 10 nM paclitaxel for 72 h; IP with SMARCD3 antibody or control IgG, protein G-Sepharose, 4 C overnight; immunoblot.

No constants are given. Whether binding was seen depends on the method and setting. Binding seen in cells or lysates may run through a third protein. Some results given as binding are weak or reduced against the parent protein; the word gives no strength.

For the substance “histone acetyltransferase p300 (from UniProt Q09472 1-2414) (enzyme)”, the binding result is listed as “no binding (condition: in the A2BR knockdown subclone)” in assay [1], “binds” in assay [2] and “binds” in assay [3].
